PMC6349883
Results are given in words; binding and its absence hold for the method and conditions named. Some entries that bind do so weakly or less than the wild type. Sequences can lack the tags named with a protein.

Sequences of proteins named here, by UniProt entry; tags and fusion partners are left off. A change or cut given only in a name is not applied to a line headed by its entry. A line that says so, or that is headed by a name, gives the form on record, which may keep a tag or linker.
phage-displayed human Interleukin-2 K35E (P60568, form named): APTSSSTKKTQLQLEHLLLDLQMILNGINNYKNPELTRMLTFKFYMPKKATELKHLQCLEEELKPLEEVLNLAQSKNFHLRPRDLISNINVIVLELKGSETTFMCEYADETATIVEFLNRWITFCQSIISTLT

Target: T1, mouse CD25 (IL-2R alpha subunit) extracellular region, Fc-fused, coated in the phage ELISA (mouse) (UniProt P01590)
T1 sequence: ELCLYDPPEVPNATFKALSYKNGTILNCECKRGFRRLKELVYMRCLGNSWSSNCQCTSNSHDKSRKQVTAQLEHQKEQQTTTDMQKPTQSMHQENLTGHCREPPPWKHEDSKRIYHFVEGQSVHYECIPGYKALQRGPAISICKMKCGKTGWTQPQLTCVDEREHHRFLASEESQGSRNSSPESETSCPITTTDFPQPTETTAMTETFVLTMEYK
Assay: ELISA; phage ELISA: phages diluted to similar levels of the displayed protein (by Myc1-9E10 reactivity) incubated on polyvinyl chloride microplates coated with CD25 (human/mouse); bound phages detected with anti-M13 mAb conjugated to horseradish peroxidase; only the target purified

Substance: phage-displayed human Interleukin-2 K35E (from UniProt P60568 21-153) (ligand)
- binding: binds
